No constants are given. Whether binding was seen depends on the method and setting. A result given as binding can be weak or reduced; the word gives no strength.
How the values were obtained:
Test in all cases: ELISA, antigen coated at 50 ng/well
[1] = target: canine B7-H3 antigen protein (canine)
[2] = target: cynomolgus B7-H3 antigen protein (Sino Biologicals; Cat. No. 90806-C08H-20) (cynomolgus)
[3] = target: rabbit B7-H3 antigen protein (rabbit)

Measured: binding

B1: anti-B7-H3 antibody (VA clone) (antibody, V domains shown)
VH: QVQLVQSGAEVKKPGASVKVSCKASGYTFTDSYMHWVRQAPGQGLEWMGWISPRTGGTDYAQKFQGRVTMTRDTSISTAYMELSRLRSDDTAVYYCARGSSRGNDYWGQGTLVTVSS
VL: QSVLTQPASVSGSPGQSITISCTGTGSDVGGYNYVSWYQQHPGKAPKLIIYDVTKRPSGFSNRFSGSKSGNTASLTISGLQAEDEADYYCSSYTSRRTYVFGTGTKLTVL
binds: all assays above

From patent EP4473018A2
